Test results reported in patent US20190127454A1 (ACADEMIA SINICA, published 2019).
No constants are given. Whether binding was seen depends on the method and setting. Some results given as binding are weak or reduced against the parent protein; the word gives no strength.

Biological target: T1, mouse recombinant SCUBE2 (mouse) (UniProt Q9JJS0)
T1 sequence (looked up): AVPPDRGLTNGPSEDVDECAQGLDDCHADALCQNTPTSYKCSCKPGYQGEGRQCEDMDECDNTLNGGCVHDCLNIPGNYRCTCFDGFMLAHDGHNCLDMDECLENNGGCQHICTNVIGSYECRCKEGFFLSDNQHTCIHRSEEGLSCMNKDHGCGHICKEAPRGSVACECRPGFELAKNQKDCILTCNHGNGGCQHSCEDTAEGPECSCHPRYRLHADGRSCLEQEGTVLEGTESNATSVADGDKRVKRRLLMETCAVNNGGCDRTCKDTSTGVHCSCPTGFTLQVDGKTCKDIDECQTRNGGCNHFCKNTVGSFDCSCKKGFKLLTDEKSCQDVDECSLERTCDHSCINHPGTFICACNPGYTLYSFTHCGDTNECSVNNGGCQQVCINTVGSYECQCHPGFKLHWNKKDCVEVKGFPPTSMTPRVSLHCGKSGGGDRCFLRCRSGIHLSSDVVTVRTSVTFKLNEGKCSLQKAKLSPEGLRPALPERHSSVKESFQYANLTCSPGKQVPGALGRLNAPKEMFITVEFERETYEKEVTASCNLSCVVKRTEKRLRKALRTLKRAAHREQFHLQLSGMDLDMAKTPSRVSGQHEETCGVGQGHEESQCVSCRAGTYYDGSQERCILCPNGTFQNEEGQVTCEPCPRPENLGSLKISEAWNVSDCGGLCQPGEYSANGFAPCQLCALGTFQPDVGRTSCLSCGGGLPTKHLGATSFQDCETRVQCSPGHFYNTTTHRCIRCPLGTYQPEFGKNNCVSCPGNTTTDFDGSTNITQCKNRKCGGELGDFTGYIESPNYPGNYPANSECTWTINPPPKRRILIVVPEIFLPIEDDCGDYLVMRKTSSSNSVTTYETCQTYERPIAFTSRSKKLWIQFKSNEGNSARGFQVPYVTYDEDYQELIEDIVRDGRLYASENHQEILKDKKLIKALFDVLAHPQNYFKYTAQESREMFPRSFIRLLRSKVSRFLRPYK
Experiment: western blot of recombinant protein expressed in HEK-293T cells

B1: anti-SCUBE2 mAb clone SP-B1 (antibody, IgG1, V domains shown)
VH: EVQLQQSGPELVKPGASVKVSCKASGYAFTSYNMYWVKQSHGKSLEWIGYIDPYNGDTNNNQKFKGKATLTVDKSSSTAYMHLNSLTSEDSAVYYCARSYRYLAWFAYWGQGTLVTVSA
VL: DIVMTQSPLSLPVSLGDQASISCRSSQSIVHSNGNTYLEWYLQKPGQSPKLLIYTVSNRFSGVPDRFSGSGSGTDFTLRISRVEAEDLGVYYCFQGSHIPYTFGGGTKLELK
notes: also called SP.B1 mAb
binding: binds
